Measurements as given in patent US8519007B2, “Use certain diterpene compounds in the treatment of androgen receptor-associated diseases” (Academia Sinica, priority 2008, dated 2013).
For some assays here: For at least one compound, name, drawing or mass did not settle the structure. Some of these results come from one statement about several compounds together.

Experiments:
22Rv1 cells [1] = experiment: Cell cycle distribution by propidium iodide flow cytometry; format: cell-based, human; settings: 22Rv1, 1 to 10 μM
LNCaP cells = experiment: as above; format: cell-based, human; settings: 1 to 10 μM
22Rv1 cells [2] = experiment: Apoptosis by nucleosome release (cytoplasmic DNA fragmentation); format: cell-based, human; settings: 22Rv1, up to 10 μM, 24 h
PC-3 cells = experiment: Cell cycle distribution by propidium iodide flow cytometry; format: cell-based, human; settings: PC-3, 1 to 10 μM
androgen receptor = biological target: T1, androgen receptor (Homo sapiens, UniProt P10275); experiment: PSA promoter luciferase reporter assay in 103E cells (AR transcriptional activity); settings: 20 h
T1 sequence (P10275 with tags, fused parts or gaps DUP590-628/H875Y): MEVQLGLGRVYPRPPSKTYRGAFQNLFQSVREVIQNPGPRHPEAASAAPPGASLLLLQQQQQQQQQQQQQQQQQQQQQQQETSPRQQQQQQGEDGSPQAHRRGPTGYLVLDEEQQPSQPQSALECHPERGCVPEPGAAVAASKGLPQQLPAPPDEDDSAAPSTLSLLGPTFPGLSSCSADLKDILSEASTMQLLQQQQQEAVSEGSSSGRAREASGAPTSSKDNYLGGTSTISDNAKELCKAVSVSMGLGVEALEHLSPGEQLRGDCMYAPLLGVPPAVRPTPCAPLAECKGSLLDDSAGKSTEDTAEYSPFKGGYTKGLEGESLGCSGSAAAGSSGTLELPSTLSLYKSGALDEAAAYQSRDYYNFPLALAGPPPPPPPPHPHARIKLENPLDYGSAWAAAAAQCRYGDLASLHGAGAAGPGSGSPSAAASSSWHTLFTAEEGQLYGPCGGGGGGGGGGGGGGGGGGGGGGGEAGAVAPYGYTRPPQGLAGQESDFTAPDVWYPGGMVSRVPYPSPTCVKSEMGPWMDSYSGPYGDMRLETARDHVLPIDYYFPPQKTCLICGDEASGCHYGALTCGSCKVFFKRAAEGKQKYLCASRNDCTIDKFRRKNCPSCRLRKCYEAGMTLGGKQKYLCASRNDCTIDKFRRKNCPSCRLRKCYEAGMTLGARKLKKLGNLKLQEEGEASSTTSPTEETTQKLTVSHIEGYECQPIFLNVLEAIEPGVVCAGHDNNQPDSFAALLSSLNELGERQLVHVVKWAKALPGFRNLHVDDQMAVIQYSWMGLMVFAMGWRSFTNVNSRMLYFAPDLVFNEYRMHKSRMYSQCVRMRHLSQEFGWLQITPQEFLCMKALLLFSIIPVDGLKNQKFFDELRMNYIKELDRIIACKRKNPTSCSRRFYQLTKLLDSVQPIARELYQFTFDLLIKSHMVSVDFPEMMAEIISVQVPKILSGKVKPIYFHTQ

## CC(O)(CS(=O)(=O)c1ccc(F)cc1)C(=O)Nc1ccc(C#N)c(C(F)(F)F)c1 (centres unmarked) [CASODEX, bicalutamide, reference compound]
22Rv1 cells [1]
  change in the cell cycle distribution: no appreciable change
LNCaP cells
  change in the cell cycle distribution: no appreciable change
22Rv1 cells [2]
  apoptosis (nucleosome release): failed to induce apoptosis
PC-3 cells
  change in the cell cycle distribution: no appreciable change

## CC(C)c1cc2c(cc1O)[C@@]1(C)CCCC(C)(C)[C@@H]1CC2 [Compound 4]
Androgen receptor
  concentration at which AR activity was completely inhibited: below 25 μM
